# Assay results published in PubChem BioAssay AID720630 (Broad Institute, 2013).
# This is one part of the list. These are further read-outs of the screen, such as a control signal, another cell line or another target. No call is given for them. Compounds called inactive in the main read-out are mostly missing here.
# Assay: caspase-3/7 apoptosis induction in HUVEC, dose response, mechanism study for HRAS target identification, cell-based, multiple timepoints, luminescence, dry powder (AID 720630)
# Conditions: caspase-3/7 luminescence
# [1] = measured here: max caspase activation timepoint 1, at 35 µM, test 1, stronger effect = higher value
# [2] = measured here: max caspase activation timepoint 2, at 35 µM, test 2, stronger effect = higher value
# [3] = measured here: max caspase activation timepoint 3, at 35 µM, test 3, stronger effect = higher value
structure (smiles),measurement,setting,value
CO[C@H]1C[C@@H]2CC[C@@H](C)[C@@](O)(O2)C(=O)C(=O)N2CCCC[C@H]2C(=O)O[C@H]([C@H](C)C[C@@H]2CC[C@@H](O)[C@H](OC)C2)CC(=O)[C@H](C)/C=C(\C)[C@@H](O)[C@@H](OC)C(=O)[C@H](C)C[C@H](C)/C=C/C=C/C=C/1C,max activity,[1],22.2%
same,max activity,[2],80.9%
same,max activity,[3],92.7%
O=C(NCCOCCOCCOc1ccc(N(C(=O)CCl)C(C(=O)NCCc2ccccc2)c2cccs2)cc1Cl)c1ccc(COC2C#CCCCCC2)cc1 (stereo unspecified),max activity,"measured here: max caspase activation timepoint 1, at 16 µM, test 1, stronger effect = higher value",19.1%
same,max activity,[2],127%
same,max activity,[3],88.9%
CC(C)(C)OC(=O)NCCOCCOCCOc1ccc(N(C(=O)CCl)C(C(=O)NCCc2ccccc2)c2cccs2)cc1Cl (stereo unspecified),max activity,"measured here: max caspase activation timepoint 1, at 8 µM, test 1, stronger effect = higher value",22.4%
same,max activity,"measured here: max caspase activation timepoint 2, at 2.1 µM, test 2, stronger effect = higher value",-28.9%
same,max activity,[3],280%
COc1cccc2c1C(=O)c1c(O)c3c(c(O)c1C2=O)C[C@@](O)(C(=O)CO)C[C@@H]3OC1C[C@H](N)[C@H](O)[C@H](C)O1 (stereo partly specified),max activity,"measured here: max caspase activation timepoint 1, at 0.0001 µM, test 1, stronger effect = higher value",-26.3%
same,max activity,"measured here: max caspase activation timepoint 2, at 0.016 µM, test 2, stronger effect = higher value",-30.8%
same,max activity,"measured here: max caspase activation timepoint 3, at 1 µM, test 3, stronger effect = higher value",103%
COc1ccc(N(C(=O)CCl)C(C(=O)NCCc2ccccc2)c2cccs2)cc1Cl (stereo unspecified),max activity,[1],156%
same,max activity,"measured here: max caspase activation timepoint 2, at 0.0021 µM, test 2, stronger effect = higher value",-18.4%
same,max activity,"measured here: max caspase activation timepoint 3, at 16 µM, test 3, stronger effect = higher value",323%
C#CCCCC(=O)NCCOCCOCCOc1ccc(N(C(=O)CCl)C(C(=O)NCCc2ccccc2)c2cccs2)cc1Cl (stereo unspecified),max activity,[1],50.7%
same,max activity,"measured here: max caspase activation timepoint 2, at 4.2 µM, test 2, stronger effect = higher value",-40.8%
same,max activity,[3],290%
Cc1onc(C(=O)N2CCN(C(c3ccc(Cl)cc3)c3ccc(OCCOCCOCCNC(=O)OC(C)(C)C)cc3)CC2)c1[N+](=O)[O-] (stereo unspecified),max activity,"measured here: max caspase activation timepoint 1, at 0.0021 µM, test 1, stronger effect = higher value",-28.2%
same,max activity,"measured here: max caspase activation timepoint 2, at 8 µM, test 2, stronger effect = higher value",-18%
same,max activity,[3],54.3%

# At a glance, part of the list above.
structure (smiles),measurement,setting,value
COc1ccc(N(C(=O)CCl)C(C(=O)NCCc2ccccc2)c2cccs2)cc1Cl (stereo unspecified),max activity,"measured here: max caspase activation timepoint 3, at 16 µM, test 3, stronger effect = higher value",323%
C#CCCCC(=O)NCCOCCOCCOc1ccc(N(C(=O)CCl)C(C(=O)NCCc2ccccc2)c2cccs2)cc1Cl (stereo unspecified),max activity,[1],50.7%
